# Source: PubChem BioAssay AID652054 (National Center for Advancing Translational Sciences (NCATS), 2013)
# Amino acid sequences for entries named in this document (tags omitted).
# UniProt P35462, whole entry, looked up: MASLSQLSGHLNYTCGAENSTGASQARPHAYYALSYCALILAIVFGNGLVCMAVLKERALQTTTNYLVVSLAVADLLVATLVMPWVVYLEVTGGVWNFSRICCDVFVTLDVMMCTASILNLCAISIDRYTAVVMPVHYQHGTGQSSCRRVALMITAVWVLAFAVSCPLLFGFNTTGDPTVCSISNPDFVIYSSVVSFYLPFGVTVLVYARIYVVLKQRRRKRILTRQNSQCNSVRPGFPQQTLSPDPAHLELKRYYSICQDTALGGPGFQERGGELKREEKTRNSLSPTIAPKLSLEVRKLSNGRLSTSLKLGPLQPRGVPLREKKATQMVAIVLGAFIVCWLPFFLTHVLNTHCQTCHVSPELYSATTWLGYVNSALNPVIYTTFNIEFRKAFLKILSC
# In all, about 360,000 compounds went through this assay and about 9,100 (2.5%) were called active. The inconclusive results got no clear call from the source; some entries with a clear call stand among them for comparison. Rule as the data show it: active = max response below about -50%; inconclusive = no clear call, values can overlap the other calls; inactive = above that. The source holds several records for some structures; these can differ, active in one and inactive in another.
# Biological target: D(3) dopamine receptor (Homo sapiens) (UniProt P35462)
# Assay: qHTS of D3 Dopamine Receptor Antagonist: qHTS
# Settings: D3R cells, DiscoveRx beta-arrestin luminescence, antagonist mode; active compounds read low
# Procedure, shortened: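 Cells plated overnight at 1500 cells/well, then exposed to library compounds with dopamine controls for 90 minutes at 37 degrees C. DiscoveRx reagent added for 30–60 minutes at room temperature; luminescence read, quantitative HTS format.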
# % is scaled to controls: 0 for no effect and ±100 for the full control effect.
row,SMILES,"max response, negative = inhibition"
1,CCCn1c(N)c(N(CCOC)C(=O)CSCC(=O)Nc2ccc(OC)cc2)c(=O)[nH]c1=O,inactive: 18.6%
2,O=C(O)c1ccc(NC(=S)NC(=O)c2ccc3ccccc3c2)cc1,inactive: -23.1%
3,C=CCOC(=O)C(=O)/C=C/c1ccc2c(c1)Cc1ccccc1-2,inconclusive: -46.5%
4,c1ccc(Oc2cccc(CN3CCCCC3)c2)cc1,inactive: -29.5%
5,CCOc1ccc(CN(C)C(=O)CN2C(=O)NC(c3ccccc3)(c3ccccc3)C2=O)cc1,inconclusive: -43.4%
6,CC(C)N(Cc1nccn1C)C(=O)c1cc(COc2ccc3ncccc3c2)on1,inactive: -3.84%
7,CCN(CC(=O)Nc1ccc([N+](=O)[O-])cc1OC)c1ccccc1,active: -67.9%
8,O=C(N1CCOCC1)N1CCN(c2nc(-c3ccc(F)cc3)cs2)CC1,inactive: -21.6%
9,Cn1c(=O)oc2cc(S(=O)(=O)NC3CCCc4ccccc43)ccc21 (centres undefined),inactive: 21.9%
10,CCN(CC)c1ccc2cc(C=O)c(=O)oc2c1,active: -55.5%
11,O=C(C1CCC1)N1CCCc2cc(S(=O)(=O)N3CCN(c4ccccc4)CC3)ccc21,inconclusive: -30.6%
12,C=CCn1c(=O)c2ccc(C(=O)NCc3ccccc3)cc2n(Cc2ccccc2Cl)c1=O,inactive: 11.7%
13,N#Cc1cccc(Oc2ccc(-c3cnc4ccccc4n3)cc2)c1C#N,inactive: 10.3%
14,O=C(CSc1nc2ccccc2c(=O)n1Cc1ccco1)NCc1ccccc1,inconclusive: -39.1%
15,COc1ccccc1CNc1nc(NCc2ccc(NC(C)=O)cc2)c2sccc2n1,inconclusive: -43.4%
16,CC(NO)C(C)(C)NO (centres undefined),inconclusive: -42.1%
17,CC1(C)N([O-])C(c2cccs2)=C[N+]1=O,inactive: -15.2%
18,CCOc1ccc(NC(=O)c2ccc(CN3CCc4ccccc4C3)cc2)cc1,inconclusive: -33.4%
19,COc1ccccc1N1CCN(CC(O)COc2ccc(C)cc2C)CC1 (centres undefined),active: -93.8%
20,O=C(COC(=O)CCS(=O)(=O)c1ccccc1)NNC(=O)c1ccc([N+](=O)[O-])cc1,inactive: 0%
21,COc1ccccc1NC(=O)COC(=O)c1ccc([N+](=O)[O-])s1,inconclusive: -42.8%
22,CN(C)S(=O)(=O)c1ccc(Cl)c(C(=O)NC2CCN(Cc3ccccc3)C2)c1 (centres undefined),active: -58.9%
23,COc1cc(/C=C/c2ccc3c(Br)cc(Br)c(O)c3n2)ccc1O,active: -90.9%

row,SMILES,"max response, negative = inhibition"
1,O=C(NCc1ccccc1)NC1(C(=O)N2CCN(c3ncccn3)CC2)CCCCC1,inconclusive: -38.2%
2,O=C(CN1CCN(Cc2ccccc2)CC1)N1CCCc2ccccc21,active: -51%
3,COC(=O)[C@@H]1C[C@@]2(O)[C@@H](O)[C@@H](O)[C@@H](O)C[C@H]2N1Cc1ccc(-c2ccccc2)cc1,inactive: -0.533%
4,COc1ccc2cc3cc(C(=O)NCCCN4CCOCC4)oc3nc2c1,inconclusive: -39.9%
5,CC12C(=O)N(c3ccccn3)C(=O)C1C1C=CC2C1 (centres undefined),inconclusive: -32.6%
6,NC(Cc1cnc[nH]1)c1csc(Nc2ccc(C(F)(F)F)cn2)n1 (centres undefined),inactive: 4.4%
7,Cc1c(C(=O)NCc2ccc(Cl)c(Cl)c2)sc(=O)n1Cc1ccccc1F,inactive: 14.1%
8,CN(C)CCCNCC(=O)c1c(-c2ccccc2)n(C)c2ccccc12,inconclusive: -40.7%
9,CCCOc1ccc(/C(O)=C2/C(=O)C(=O)N(CCN(C)C)C2c2ccc(OC)c(OC)c2)cc1 (centres undefined),inconclusive: -31.1%
10,CCOC(=O)c1nc(S(C)(=O)=O)ncc1Cl,inconclusive: -42.1%
11,Cc1cc(C)c(C#N)c(SCC(=O)Nc2nnc(-c3ccccc3)s2)n1,inactive: 10.8%
12,CCCCCCCCNc1ncnc2ccccc12,inactive: 13.9%
13,COc1ccc2c(c1)c(=Cc1ccc(N(C)C)cc1)c1cc(-c3ccccc3)[n+](C)n12,active: -65.2%
14,O=C(Nc1ccc(S(=O)(=O)Nc2nccs2)cc1)c1ccncc1,inconclusive: -30.9%
15,CC(=O)c1ccc(S(=O)(=O)N2CCC3(CC2)CC(=O)c2ccccc2O3)cc1,inconclusive: -37%
16,COc1c(C(=O)Nc2ccc(Br)cn2)ccc2ccccc12,inactive: 42.8%
17,COc1ccc(-c2oc3cc(O)c(OC)c(O)c3c(=O)c2OC)cc1O,inconclusive: -44.4%
18,COc1ccc(Cc2noc(CN3CCN(C4CCc5ccccc5C4)CC3)n2)cc1OC (centres undefined),inconclusive: -37.2%
19,COCCCNCCOCCOc1ccc(C)cc1Br,inconclusive: -41.1%
20,COc1cccc(CNC(=O)COC(=O)CCCNC(=O)c2ccc(Cl)cc2)c1,inactive: -6.96%
21,O=C(O)c1ccc(NC2=C(Cl)C(=O)c3ccccc3C2=O)cc1,inconclusive: -43.4%
22,Cc1ccc(CNC(=O)C2CCC(=O)N(C3CC3)C2)cc1 (centres undefined),inactive: 0.289%
23,CCCCOc1ccc(C(=O)NCC(=O)NCC(c2ccc(F)cc2)N2CCOCC2)cc1 (centres undefined),inactive: 10.7%

# Shown as tab-separated lines: entries from further up
row	SMILES	max response, negative = inhibition
16	CC(NO)C(C)(C)NO (centres undefined)	inconclusive: -42.1%
17	CC1(C)N([O-])C(c2cccs2)=C[N+]1=O	inactive: -15.2%
18	CCOc1ccc(NC(=O)c2ccc(CN3CCc4ccccc4C3)cc2)cc1	inconclusive: -33.4%
19	COc1ccccc1N1CCN(CC(O)COc2ccc(C)cc2C)CC1 (centres undefined)	active: -93.8%
20	O=C(COC(=O)CCS(=O)(=O)c1ccccc1)NNC(=O)c1ccc([N+](=O)[O-])cc1	inactive: 0%
21	COc1ccccc1NC(=O)COC(=O)c1ccc([N+](=O)[O-])s1	inconclusive: -42.8%
22	CN(C)S(=O)(=O)c1ccc(Cl)c(C(=O)NC2CCN(Cc3ccccc3)C2)c1 (centres undefined)	active: -58.9%
23	COc1cc(/C=C/c2ccc3c(Br)cc(Br)c(O)c3n2)ccc1O	active: -90.9%
1	O=C(NCc1ccccc1)NC1(C(=O)N2CCN(c3ncccn3)CC2)CCCCC1	inconclusive: -38.2%
2	O=C(CN1CCN(Cc2ccccc2)CC1)N1CCCc2ccccc21	active: -51%
3	COC(=O)[C@@H]1C[C@@]2(O)[C@@H](O)[C@@H](O)[C@@H](O)C[C@H]2N1Cc1ccc(-c2ccccc2)cc1	inactive: -0.533%
4	COc1ccc2cc3cc(C(=O)NCCCN4CCOCC4)oc3nc2c1	inconclusive: -39.9%
5	CC12C(=O)N(c3ccccn3)C(=O)C1C1C=CC2C1 (centres undefined)	inconclusive: -32.6%
6	NC(Cc1cnc[nH]1)c1csc(Nc2ccc(C(F)(F)F)cn2)n1 (centres undefined)	inactive: 4.4%
7	Cc1c(C(=O)NCc2ccc(Cl)c(Cl)c2)sc(=O)n1Cc1ccccc1F	inactive: 14.1%
8	CN(C)CCCNCC(=O)c1c(-c2ccccc2)n(C)c2ccccc12	inconclusive: -40.7%
9	CCCOc1ccc(/C(O)=C2/C(=O)C(=O)N(CCN(C)C)C2c2ccc(OC)c(OC)c2)cc1 (centres undefined)	inconclusive: -31.1%
10	CCOC(=O)c1nc(S(C)(=O)=O)ncc1Cl	inconclusive: -42.1%
11	Cc1cc(C)c(C#N)c(SCC(=O)Nc2nnc(-c3ccccc3)s2)n1	inactive: 10.8%

# Further compounds:

row,SMILES,"max response, negative = inhibition"
1,O=C1NN(c2ccccc2)C(=O)/C1=C\c1cccn1-c1ccc(Cl)c([N+](=O)[O-])c1,inconclusive: -46.1%
2,CCOC(=O)c1c(C(C#N)C#N)cc(C)nc1C,inconclusive: -41.6%
3,O=C(CCN1C(=O)/C(=C/c2ccccc2Cl)SC1=S)NC1CCCC1,inconclusive: -37.1%
4,Cc1ccc(S(=O)(=O)N2CCOCC2)cc1C(=O)NCc1cccs1,inactive: 11.9%
5,CC1CCN(CCCOc2ccc(OCc3ccccc3)cc2)CC1,active: -69.5%
6,Cc1ccc(OCCN2CCN(c3ncnc4sc(C)c(C)c34)CC2)cc1,inactive: 16.2%
7,O=C1CCCC/C1=C/NCc1ccc(F)cc1,inconclusive: -42.3%
8,CCCc1cc(=O)[nH]c(SCC(=O)Nc2c(C)n(C)n(-c3ccccc3)c2=O)n1,inactive: 6.08%
9,Cc1cccc(Oc2cc(NC(=O)c3ccccc3)cc([N+](=O)[O-])c2)c1,inconclusive: -47.2%
10,COc1ccccc1N1C(N)=NC(N)=NC1(C)C,active: -53%
11,O=C(COC(=O)[C@H](Cc1ccccc1)NC(=O)c1cccs1)NC1CC1,inconclusive: -31.8%
12,CCc1cc(=O)oc2cc(OS(C)(=O)=O)ccc12,inactive: 2.56%
13,C/C(=C/CCC(C)[C@H]1CC[C@@]2(C)C3=C(CC[C@]12C)[C@@]1(C)CCC(=O)C(C)(C)[C@@H]1CC3)C(=O)O (some centres undefined),inconclusive: -47%
14,CC1CCN(S(=O)(=O)c2ccc3c(c2)oc(=O)n3CC(=O)N2CCc3ccccc3C2)CC1,inconclusive: -42%
15,Cc1nc2c(-c3ccc(F)cc3)cnn2c(N)c1-c1ccc(F)cc1,inconclusive: -30.7%
16,Cc1cccc(NC(=O)NNC(=O)c2ccc3ccccc3c2)c1,inconclusive: -34.7%
17,CCCOc1ccc(-c2nc(C#N)c(N3CCN(CC)CC3)o2)cc1,inconclusive: -44.1%
18,O=C(CNC(=O)c1ccco1)NCC(=O)OCC(=O)c1ccc(Cl)c([N+](=O)[O-])c1,inconclusive: -47.3%
19,O=C(NCCN1CCN(Cc2ccc([N+](=O)[O-])cc2)CC1)C(=O)Nc1ccccc1,inconclusive: -39.8%
20,O=C(NCc1ccc(F)cc1)C1CCCN1S(=O)(=O)c1ccc(F)cc1 (centres undefined),inactive: 6.53%
21,COc1ccc(-c2c3c(cc(C)[n+]2[O-])oc2ccc(OC)cc23)cc1,inactive: 9.15%
22,CCOc1nc2cnccc2n(CC(=O)Nc2ccc(C)c(C)c2)c1=O,inconclusive: -33.3%
23,COc1cc(OC)c(N(C)S(=O)(=O)c2cccc(C(=O)OCC(=O)N(C)Cc3ccccc3)c2)cc1Cl,inactive: -2.46%

row,SMILES,"max response, negative = inhibition"
1,COc1ccc(N=C2C(=O)Nc3c(C)cccc32)cc1,inconclusive: -40.3%
2,Cc1ccc(NC(=O)CN2CCCC2)cc1,inactive: -7.91%
3,COc1cc2c(cc1O)C(Cc1ccc(O)cc1)NCC2 (centres undefined),active: -107%
4,CN(C)CCCC1(O)c2ccccc2C=Cc2ccccc21,inconclusive: -33.4%
5,COc1ccc(NC(=O)CCn2cccc2)cc1,inconclusive: -37.2%
6,CCOCCCNCC(=O)NCC1CCCCC1,inconclusive: -37.6%
7,COc1cccc(C(=O)NCCS(=O)(=O)NC2CCCC2)c1,active: -73.6%
8,COC(=O)N/N=C/c1ccc([N+](=O)[O-])s1,inconclusive: -39.7%
9,COc1cc(/C=C2/CCC/C(=C\c3cc(O)c(OC)c(Cl)c3)C2=O)cc(Cl)c1O,inconclusive: -31.6%
10,COc1cccc(-n2ccnc2SCC(=O)Nc2nccs2)c1,inconclusive: -31.3%
11,CCOc1cc(C(=O)Nc2ccc(NC(C)=O)cc2)ccc1OCC(=O)N1CCCCC1,inconclusive: -45.8%
12,O=[N+]([O-])c1ccc(N2CCOCC2)cc1N1CCCCC1,inconclusive: -36.1%
13,O=c1[nH]c(NCCCO)nc2c1C1(CCCC1)Cc1ccccc1-2,inactive: -29.8%
14,COc1ccc(C(=O)NC(=S)N2CCN(c3ccccc3OC)CC2)cc1,inactive: -16.2%
15,Oc1c(CN2CCN(c3ccc(F)cc3)CC2)cc(Cl)c2cccnc12,active: -59.7%
16,CCC1CCCCN1S(=O)(=O)c1ccc(NC(=O)c2cccs2)cc1 (centres undefined),inconclusive: -38.7%
17,COc1cc([C@@H]2OC[C@@H]3[C@H]2CO[C@@H]3c2ccc3c(c2)OCO3)ccc1O,inactive: 6.47%
18,FC(F)(F)C(F)(F)c1nc2nc(Cl)c(Cl)nc2[nH]1,inactive: 22.2%
19,O=C(COC(=O)/C=C/c1ccccc1[N+](=O)[O-])NCc1ccco1,inactive: -17.8%
20,CC(=O)NS(=O)(=O)c1ccc(NC(=O)c2cccc3ccccc23)cc1,inconclusive: -38.8%
